No constants are given. Whether binding was seen depends on the method and setting. In cells and extracts the contact can be indirect. Some results given as binding are weak or reduced against the parent protein; the word gives no strength.
Key:
Assay in all cases: co-IP; endogenous proteins from HEK293T whole cell extract (2.5 mg, 2 h, 4 °C; 50 mM Tris-HCl pH 7.5, 150 mM NaCl, 1% Triton X-100); Protein G agarose with primary antibody; western blot
[1] = target: BRCA1 (endogenous, HEK293T) (human (endogenous in HEK293T)) (UniProt P38398)
[2] = target: RAD50 (endogenous, HEK293T) (human (endogenous in HEK293T)) (UniProt Q92878)
[3] = target: 53BP1 (endogenous, HEK293T) (human (endogenous in HEK293T)) (UniProt Q12888)

Protein sequences, listed by entry. Tags and fused reporters are not part of them.
UniProt P38398: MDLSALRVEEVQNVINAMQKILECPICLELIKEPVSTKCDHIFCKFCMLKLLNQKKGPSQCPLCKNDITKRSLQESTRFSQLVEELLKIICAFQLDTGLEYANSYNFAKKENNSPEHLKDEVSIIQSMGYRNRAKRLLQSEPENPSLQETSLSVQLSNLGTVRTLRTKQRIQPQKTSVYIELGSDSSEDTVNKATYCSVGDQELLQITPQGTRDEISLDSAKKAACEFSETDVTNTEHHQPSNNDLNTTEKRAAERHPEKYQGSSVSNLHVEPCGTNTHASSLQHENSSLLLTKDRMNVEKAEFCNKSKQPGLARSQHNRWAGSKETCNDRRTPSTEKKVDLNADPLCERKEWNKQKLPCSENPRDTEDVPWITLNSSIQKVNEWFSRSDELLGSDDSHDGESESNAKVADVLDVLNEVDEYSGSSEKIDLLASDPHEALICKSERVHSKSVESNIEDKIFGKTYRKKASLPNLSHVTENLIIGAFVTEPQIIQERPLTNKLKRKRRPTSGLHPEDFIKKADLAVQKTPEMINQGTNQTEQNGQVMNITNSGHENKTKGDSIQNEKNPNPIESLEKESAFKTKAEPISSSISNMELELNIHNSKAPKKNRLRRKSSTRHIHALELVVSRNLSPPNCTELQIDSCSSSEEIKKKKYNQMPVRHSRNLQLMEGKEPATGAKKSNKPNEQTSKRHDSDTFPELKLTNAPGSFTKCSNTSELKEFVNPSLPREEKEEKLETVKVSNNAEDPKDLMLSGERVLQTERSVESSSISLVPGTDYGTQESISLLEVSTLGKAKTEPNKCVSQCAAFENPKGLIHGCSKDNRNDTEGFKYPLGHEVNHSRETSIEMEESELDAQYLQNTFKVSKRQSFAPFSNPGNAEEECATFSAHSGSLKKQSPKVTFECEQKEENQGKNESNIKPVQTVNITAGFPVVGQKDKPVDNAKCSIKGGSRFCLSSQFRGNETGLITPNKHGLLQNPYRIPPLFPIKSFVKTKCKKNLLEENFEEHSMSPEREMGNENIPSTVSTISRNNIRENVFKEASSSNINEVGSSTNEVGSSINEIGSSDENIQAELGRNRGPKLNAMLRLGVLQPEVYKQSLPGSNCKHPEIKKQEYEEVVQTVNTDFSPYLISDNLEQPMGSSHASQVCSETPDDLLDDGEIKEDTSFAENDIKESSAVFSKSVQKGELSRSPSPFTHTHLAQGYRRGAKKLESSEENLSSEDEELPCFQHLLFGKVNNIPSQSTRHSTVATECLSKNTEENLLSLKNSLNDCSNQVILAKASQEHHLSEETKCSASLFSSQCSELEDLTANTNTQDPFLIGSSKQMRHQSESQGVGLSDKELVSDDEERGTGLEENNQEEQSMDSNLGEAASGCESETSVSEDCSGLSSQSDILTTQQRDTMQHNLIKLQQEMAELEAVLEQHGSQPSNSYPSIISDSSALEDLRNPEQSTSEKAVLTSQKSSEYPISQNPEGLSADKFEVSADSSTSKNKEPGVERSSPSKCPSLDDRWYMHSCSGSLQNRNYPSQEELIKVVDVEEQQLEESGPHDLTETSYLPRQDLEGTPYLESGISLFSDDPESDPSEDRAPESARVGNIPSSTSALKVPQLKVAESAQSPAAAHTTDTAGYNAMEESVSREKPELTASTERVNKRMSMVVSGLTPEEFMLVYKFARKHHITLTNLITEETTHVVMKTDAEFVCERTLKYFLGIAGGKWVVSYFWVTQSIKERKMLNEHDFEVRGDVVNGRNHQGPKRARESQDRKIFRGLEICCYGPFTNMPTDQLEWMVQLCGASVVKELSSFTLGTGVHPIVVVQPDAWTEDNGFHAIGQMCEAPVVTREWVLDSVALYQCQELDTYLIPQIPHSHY
UniProt Q92878: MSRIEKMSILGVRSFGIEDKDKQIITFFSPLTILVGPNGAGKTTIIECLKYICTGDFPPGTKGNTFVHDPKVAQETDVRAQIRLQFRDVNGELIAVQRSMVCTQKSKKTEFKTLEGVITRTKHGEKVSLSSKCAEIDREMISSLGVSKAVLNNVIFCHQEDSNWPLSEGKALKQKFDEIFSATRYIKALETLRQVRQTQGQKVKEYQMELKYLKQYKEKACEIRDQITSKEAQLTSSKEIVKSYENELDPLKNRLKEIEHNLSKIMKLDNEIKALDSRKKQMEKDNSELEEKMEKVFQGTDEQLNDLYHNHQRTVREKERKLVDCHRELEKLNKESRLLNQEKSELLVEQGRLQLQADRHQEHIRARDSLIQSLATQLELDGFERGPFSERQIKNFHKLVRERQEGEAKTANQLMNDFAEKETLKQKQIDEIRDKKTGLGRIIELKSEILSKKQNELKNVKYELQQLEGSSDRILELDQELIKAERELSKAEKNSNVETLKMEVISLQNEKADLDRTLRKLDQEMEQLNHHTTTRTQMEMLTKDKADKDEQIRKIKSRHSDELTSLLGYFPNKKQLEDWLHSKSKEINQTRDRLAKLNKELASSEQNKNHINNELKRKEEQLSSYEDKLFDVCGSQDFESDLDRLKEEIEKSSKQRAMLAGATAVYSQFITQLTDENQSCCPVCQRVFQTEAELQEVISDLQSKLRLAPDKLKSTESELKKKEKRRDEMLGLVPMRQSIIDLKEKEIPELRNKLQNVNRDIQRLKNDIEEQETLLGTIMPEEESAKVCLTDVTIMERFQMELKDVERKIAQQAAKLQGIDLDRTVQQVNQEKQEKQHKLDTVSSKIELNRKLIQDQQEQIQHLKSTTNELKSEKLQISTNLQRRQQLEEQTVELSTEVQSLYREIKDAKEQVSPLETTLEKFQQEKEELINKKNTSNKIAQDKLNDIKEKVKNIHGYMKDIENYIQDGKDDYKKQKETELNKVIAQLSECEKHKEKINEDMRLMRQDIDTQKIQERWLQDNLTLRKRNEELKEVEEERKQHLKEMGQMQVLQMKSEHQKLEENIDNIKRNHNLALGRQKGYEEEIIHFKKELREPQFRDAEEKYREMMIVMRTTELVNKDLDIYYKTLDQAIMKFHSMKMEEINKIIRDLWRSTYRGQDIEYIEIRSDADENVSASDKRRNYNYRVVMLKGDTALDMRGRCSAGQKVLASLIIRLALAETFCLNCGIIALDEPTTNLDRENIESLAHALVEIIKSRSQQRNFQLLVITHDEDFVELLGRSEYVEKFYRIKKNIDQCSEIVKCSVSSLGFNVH
UniProt Q12888: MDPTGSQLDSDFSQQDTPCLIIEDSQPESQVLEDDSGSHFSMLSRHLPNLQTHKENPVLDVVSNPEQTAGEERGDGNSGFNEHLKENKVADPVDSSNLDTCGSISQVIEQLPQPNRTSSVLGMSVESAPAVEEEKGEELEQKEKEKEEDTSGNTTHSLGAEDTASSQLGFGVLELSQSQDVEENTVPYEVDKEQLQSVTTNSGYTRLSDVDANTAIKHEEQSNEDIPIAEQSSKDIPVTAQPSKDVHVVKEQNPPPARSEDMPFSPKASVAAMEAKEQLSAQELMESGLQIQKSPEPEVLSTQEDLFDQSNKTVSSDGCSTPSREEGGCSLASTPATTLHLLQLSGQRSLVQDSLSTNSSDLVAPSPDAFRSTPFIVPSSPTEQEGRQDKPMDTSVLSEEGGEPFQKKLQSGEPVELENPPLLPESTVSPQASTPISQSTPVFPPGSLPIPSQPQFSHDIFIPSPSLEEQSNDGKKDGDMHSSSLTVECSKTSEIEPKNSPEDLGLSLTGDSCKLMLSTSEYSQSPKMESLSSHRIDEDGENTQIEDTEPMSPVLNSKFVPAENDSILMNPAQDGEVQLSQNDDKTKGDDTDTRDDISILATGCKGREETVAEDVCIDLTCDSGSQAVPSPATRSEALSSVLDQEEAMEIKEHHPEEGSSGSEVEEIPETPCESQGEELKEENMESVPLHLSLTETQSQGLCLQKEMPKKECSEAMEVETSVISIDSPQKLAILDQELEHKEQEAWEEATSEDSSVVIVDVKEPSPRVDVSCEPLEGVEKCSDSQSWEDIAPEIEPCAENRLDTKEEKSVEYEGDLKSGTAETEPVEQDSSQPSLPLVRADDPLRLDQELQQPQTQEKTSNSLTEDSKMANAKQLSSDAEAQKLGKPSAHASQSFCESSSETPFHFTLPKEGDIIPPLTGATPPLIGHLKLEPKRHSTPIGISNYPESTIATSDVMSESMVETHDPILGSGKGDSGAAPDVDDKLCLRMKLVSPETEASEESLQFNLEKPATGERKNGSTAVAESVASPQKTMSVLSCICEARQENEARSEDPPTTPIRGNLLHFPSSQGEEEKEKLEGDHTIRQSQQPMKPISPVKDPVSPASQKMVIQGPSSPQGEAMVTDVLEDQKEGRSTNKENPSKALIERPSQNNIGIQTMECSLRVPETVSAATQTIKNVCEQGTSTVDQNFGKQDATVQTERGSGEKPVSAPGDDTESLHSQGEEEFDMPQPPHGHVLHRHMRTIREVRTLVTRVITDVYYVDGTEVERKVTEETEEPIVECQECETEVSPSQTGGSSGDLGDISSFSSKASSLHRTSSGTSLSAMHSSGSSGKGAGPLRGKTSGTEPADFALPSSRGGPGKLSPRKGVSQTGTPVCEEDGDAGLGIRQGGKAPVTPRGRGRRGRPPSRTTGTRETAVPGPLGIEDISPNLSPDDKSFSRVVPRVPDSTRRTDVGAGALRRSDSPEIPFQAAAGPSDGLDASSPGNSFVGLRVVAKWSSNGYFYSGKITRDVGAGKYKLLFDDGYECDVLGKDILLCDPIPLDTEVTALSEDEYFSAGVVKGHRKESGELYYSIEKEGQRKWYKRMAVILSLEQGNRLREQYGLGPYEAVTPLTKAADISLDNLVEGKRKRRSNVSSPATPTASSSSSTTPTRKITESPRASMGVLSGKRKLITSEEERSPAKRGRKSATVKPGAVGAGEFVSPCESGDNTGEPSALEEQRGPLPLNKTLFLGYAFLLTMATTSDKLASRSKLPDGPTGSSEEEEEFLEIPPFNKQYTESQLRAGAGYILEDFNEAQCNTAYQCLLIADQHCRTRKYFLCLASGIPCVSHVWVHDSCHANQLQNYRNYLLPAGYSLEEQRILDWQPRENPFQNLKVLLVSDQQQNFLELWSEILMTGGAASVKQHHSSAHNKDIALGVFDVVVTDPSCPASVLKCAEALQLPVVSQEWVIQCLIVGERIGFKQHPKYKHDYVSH
UniProt Q14244: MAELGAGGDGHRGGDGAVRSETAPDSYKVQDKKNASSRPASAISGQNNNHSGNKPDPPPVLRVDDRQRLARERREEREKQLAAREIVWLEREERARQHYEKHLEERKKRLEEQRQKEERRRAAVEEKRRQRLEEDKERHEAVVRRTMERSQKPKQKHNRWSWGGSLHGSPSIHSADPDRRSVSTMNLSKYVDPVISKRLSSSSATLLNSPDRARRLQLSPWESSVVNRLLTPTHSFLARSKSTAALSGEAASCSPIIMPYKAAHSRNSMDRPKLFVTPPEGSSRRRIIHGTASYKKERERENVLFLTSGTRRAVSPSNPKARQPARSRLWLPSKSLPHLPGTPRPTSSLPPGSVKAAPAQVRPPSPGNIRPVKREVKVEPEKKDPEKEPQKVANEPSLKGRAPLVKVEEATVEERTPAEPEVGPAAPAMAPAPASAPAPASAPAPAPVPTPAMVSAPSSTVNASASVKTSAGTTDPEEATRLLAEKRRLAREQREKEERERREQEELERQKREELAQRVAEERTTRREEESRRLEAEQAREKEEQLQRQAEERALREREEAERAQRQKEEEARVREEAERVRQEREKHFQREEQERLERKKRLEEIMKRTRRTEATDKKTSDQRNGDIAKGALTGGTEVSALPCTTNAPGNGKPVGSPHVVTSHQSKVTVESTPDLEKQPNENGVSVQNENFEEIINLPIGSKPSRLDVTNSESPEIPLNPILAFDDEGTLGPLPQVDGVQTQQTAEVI

Measured: binding

MAP7 (endogenous, HEK293T) (from UniProt Q14244 1-749)
binds: all assays above

Source: paper PMC9958362
